PubChem BioAssay AID504791 – Drosophila RNAi Screening Center | 2011

- Assay: 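Genes whose knock-down strengthens or weakens small-RNA reporter silencing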 (primary screen)
- Cell system: Drosophila S2-derived reporter cells
- Knock-down reagent: long dsRNA against Drosophila genes, about 150-250 ng dsRNA per well (siRNA assay); about 80-120 ng (miRNA assay)
- Duration: about 5 days (siRNA assay); about 4 days (miRNA assay)
- Challenge: copper sulfate induction of reporters: 25 µM (siRNA assay); 200 mM stated (miRNA assay), 1-2 days before reading
- Read-out: 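Per-well ratio of Renilla over firefly light, expressed relative to that plate's average ratio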
- Hit rule: 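First-pass picks had plate-scaled ratios over 1.5 for the siRNA assay, over 1.6 for the miRNA assay, or under 0.6; two distinct dsRNAs had to score alike on retest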
In all, the deposit lists about 23,000 reagents; below is a random part of those with a known target gene and a result. Of all reagents, 199 (0.86%) are marked active. 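Plate-scaled ratios behind the calls are not deposited; printed light signals are raw; many rows marked increased or decreased are still called inactive.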 Entries without a mark were called inactive. Reagents against one gene are numbered here. The record does not give: the direction of the score.

gene knocked down	reagent	stable siRNA reporter change	miRNA reporter change	stable assay Renilla, run 1 (luminescence)	stable assay firefly, run 1 (luminescence)
CG16717	1			6578	4.90e5
Spt7	1			7106	4.75e5
p115	1			5280	2.97e5
Sodh1 (Sorbitol dehydrogenase 1)	1			8039	3.93e5
CG4502	1			44400	1.69e5
CG4502	2			3175	3.09e5
Sobp (Sine oculis-binding protein)	1			7599	3.77e5
Smyd4-2 (SET and MYND domain containing, class 4, member 2)	1			6516	4.17e5
CG33177	1			4292	3.67e5
GlyT (Glycine transporter)	1			7155	3.65e5
ATPsynCF6L (ATP synthase, coupling factor 6-like)	1			6311	4.34e5
fs(1)M3 (female sterile (1) M3)	1			7302	4.15e5
Drsl6 (Drosomycin-like 6)	1			6331	3.93e5
Art7 (Arginine methyltransferase 7)	1			6388	3.77e5
CG8892	1			11847	1.24e5
Alp13 (Alkaline phosphatase 13)	1			6300	4.16e5
esc (extra sexcombs)	1			18118	6.56e5
CG6726	1			6786	3.33e5
TfIIA-S (Transcription-factor-IIA-S)	1			6055	3.44e5
ine (inebriated)	1			11973	6.56e5
CG14840	1			7647	5.52e5
Rpn12 (Regulatory particle non-ATPase 12)	1	reporter ratio raised past the hit cutoff		6815	2.11e5
Cpr66Cb (Cuticular protein 66Cb)	1			6050	4.74e5
nkt (noktochor)	1			5240	3.23e5
Dis3l2 (Dis3 like 3'-5' exoribonuclease 2)	1			10311	4.63e5
tll (tailless)	1			6251	3.11e5
Shaw (Shaker cognate w)	1			7195	4.49e5
Shaw (Shaker cognate w)	2			4092	4.41e5
Shaw (Shaker cognate w)	3			9043	4.96e5
Rbbp5 (Retinoblastoma binding protein 5)	1			10834	3.98e5
CG32054	1			7199	3.94e5
CG32006	1			10148	5.68e5
dpy (dumpy)	1			3275	2.60e5
dpy (dumpy)	2			4315	2.62e5
dpy (dumpy)	3			8500	4.29e5
5-HT1A (5-hydroxytryptamine (serotonin) receptor 1A)	1			5684	3.80e5
CG10339	1			5954	3.44e5
Vdup1 (Vitamin D[[3]] up-regulated protein 1)	1			4807	2.99e5
Mtr3	1			8039	3.27e5
Dtg (Dpp target gene)	1			7075	3.96e5
smash (smallish)	1		reporter ratio lowered past the hit cutoff	7567	4.28e5
smash (smallish)	2			5819	3.97e5
CG14309	1			7951	3.29e5
Nufip	1			8525	3.92e5
CG1575	1			8050	4.90e5
CG2127	1			6708	3.78e5
CG30154	1			6043	5.34e5
cindr (CIN85 and CD2AP related)	1			7262	4.02e5
cindr (CIN85 and CD2AP related)	2			5519	2.63e5
CG10628	1			6186	3.42e5
fax (failed axon connections)	1			8751	3.00e5
CG30423	1			4726	4.27e5
Pph13 (PvuII-PstI homology 13)	1			19706	2.14e5
Pph13 (PvuII-PstI homology 13)	2			5163	4.47e5
CG15449	1			5774	3.19e5

Quoted from above for reference:
gene knocked down	reagent	stable siRNA reporter change	miRNA reporter change	stable assay Renilla, run 1 (luminescence)	stable assay firefly, run 1 (luminescence)
Shaw (Shaker cognate w)	1			7195	4.49e5
Shaw (Shaker cognate w)	2			4092	4.41e5
Shaw (Shaker cognate w)	3			9043	4.96e5
Rbbp5 (Retinoblastoma binding protein 5)	1			10834	3.98e5
CG32054	1			7199	3.94e5
CG32006	1			10148	5.68e5
dpy (dumpy)	1			3275	2.60e5
dpy (dumpy)	2			4315	2.62e5
dpy (dumpy)	3			8500	4.29e5
5-HT1A (5-hydroxytryptamine (serotonin) receptor 1A)	1			5684	3.80e5
CG10339	1			5954	3.44e5
Vdup1 (Vitamin D[[3]] up-regulated protein 1)	1			4807	2.99e5
Mtr3	1			8039	3.27e5

Further entries:
gene knocked down	reagent	stable siRNA reporter change	miRNA reporter change	stable assay Renilla, run 1 (luminescence)	stable assay firefly, run 1 (luminescence)
unc-45 (uncoordinated 45)	1			6891	4.63e5
flip (flippy)	1			6523	3.16e5
Cpr67Fa2 (Cuticular protein 67Fa2)	1			4884	3.11e5
CG11902	1			4267	4.31e5
CG15048 (retired record)	1			5403	4.02e5
zormin	1			4551	3.76e5
zormin	2			6347	3.20e5
zormin	3			7031	3.91e5
zormin	4			5656	3.32e5
zormin	5			6263	3.65e5
zormin	6			7519	2.17e5
zormin	7			2827	3.25e5
fuss (fussel)	1			6818	4.14e5
fuss (fussel)	2			10376	6.05e5
rols (rolling pebbles)	1			5914	3.33e5
rols (rolling pebbles)	2			5770	3.01e5
rols (rolling pebbles)	3			5394	3.51e5
drl (derailed)	1			17094	1.34e6
PsGEF (retired record)	1			6242	4.25e5
PsGEF (retired record)	2			4547	2.86e5
eya (eyes absent)	1			12824	5.47e5
Ns2 (Nucleostemin 2)	1			13116	5.52e5
CG10979	1			6518	4.18e5
tsh (teashirt)	1			6343	3.75e5
Rgk1 (retired record)	1			5928	3.69e5
Rgk1 (retired record)	2			5134	2.02e5
Git (G protein-coupled receptor kinase interacting ArfGAP)	1			8143	4.81e5
CG31937	1			13811	5.21e5
